The supplement of paper PMC3334620
Over roughly 33,000 sequences, “E-score (-0.5 to 0.5)” has its median near -0.0059; the highest 2% begin near 0.26. The list shows a part of the results.

Molecular target: T1, Cin5 (UniProt P40917)
T1 sequence: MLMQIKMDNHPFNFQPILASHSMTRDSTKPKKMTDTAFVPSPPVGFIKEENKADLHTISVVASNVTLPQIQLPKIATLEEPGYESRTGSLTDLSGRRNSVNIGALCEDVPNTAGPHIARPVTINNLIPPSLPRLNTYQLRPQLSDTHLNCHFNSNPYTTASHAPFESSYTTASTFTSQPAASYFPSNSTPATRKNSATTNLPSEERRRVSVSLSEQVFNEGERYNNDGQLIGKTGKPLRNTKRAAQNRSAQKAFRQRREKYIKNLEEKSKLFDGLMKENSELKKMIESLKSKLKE
Test: PBM E-score (8-mer binding enrichment) (E-score (-0.5 to 0.5)); higher = stronger / more preferred TF binding
Conditions: protein concentration: 100 nM; construct: GST-full length
Procedure, shortened: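 Each ungapped eight-base word and its reverse complement, pooled, received an E-score from the Universal PBM Analysis Suite. Underlying scans, normalised with masliner, recorded fluorescent anti-GST bound to GST-tagged yeast transcription factors. These were applied at about 100-200 nM to universal all-10-mer Agilent arrays double-stranded by primer extension.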

Compared with AAGGGGGC, AGCTGAAC is higher in “PBM E-score” value: -0.242 for the first, -0.125 for the second.

Compared with AAATCTGG, GGTAAACA is higher in “PBM E-score” value: 0.0167 for the first, 0.079 for the second.

First: AAGTAAGG
Second: AAAGCATC
The “PBM E-score” value of the first is lower: 0.069 for the first, 0.134 for the second.

Compared with TACTCGAA, AGTTCCCC is lower in “PBM E-score” value: -0.0449 for the first, -0.116 for the second.

First: AATCGACC
Second: ATGGGGAA
The “PBM E-score” value of the first is lower: 0.147 for the first, 0.186 for the second.

Compared with GTGATCAC, AATGGGTA is higher in “PBM E-score” value: -0.106 for the first, 0.16 for the second.

Going from GCCCCTCC to CCCAGTAC, the “PBM E-score” value falls from -0.0369 to -0.116.

Compared with CCTGCATA, AGGACTTA is lower in “PBM E-score” value: -0.0919 for the first, -0.221 for the second.

Compared with AACGGTAT, CGCACAGC is lower in “PBM E-score” value: -0.0343 for the first, -0.147 for the second.

Compared with CGCGGATC, ACCCCCGG is lower in “PBM E-score” value: -0.0837 for the first, -0.301 for the second.

First: GGAACACA
Second: AAGAGCGC
The “PBM E-score” value of the first is higher: 0.0362 for the first, -0.00065 for the second.

Going from CGTTAAAA to ACTATCCC, the “PBM E-score” value rises from -0.179 to -0.0182.

First: CGGGTAAG
Second: CTTGGAGC
The “PBM E-score” value of the first is higher: -0.0632 for the first, -0.185 for the second.

First: GCACCTCC
Second: GCCGTATA
The “PBM E-score” value of the first is lower: -0.275 for the first, 0.0545 for the second.

Going from CATGGAGC to CACTGCCC, the “PBM E-score” value falls from -0.0156 to -0.0939.

Compared with AGGCGGCG, CATCCGAA is higher in “PBM E-score” value: -0.0941 for the first, 0.0846 for the second.

First: CGGCCGTC
Second: AAAGCGGA
The “PBM E-score” value of the first is lower: -0.125 for the first, -0.0958 for the second.

First: GGGTAGCA
Second: TCACCAGA
The “PBM E-score” value of the first is lower: -0.181 for the first, -0.144 for the second.

First: GGTCGTTA
Second: CCCCGCTA
The “PBM E-score” value of the first is higher: 0.0687 for the first, -0.0285 for the second.

Going from AGAGACCG to ATTGTCAC, the “PBM E-score” value rises from -0.18 to 0.0732.

First: GCCCAATA
Second: CCTAACCA
The “PBM E-score” value of the first is lower: 0.0485 for the first, 0.0938 for the second.

Going from GGGACGAC to AGCGACGA, the “PBM E-score” value rises from -0.205 to -0.123.

First: TACCATAA
Second: TACAATAA
The “PBM E-score” value of the first is higher: 0.191 for the first, 0.139 for the second.

Compared with GTGCCACA, ATGTTGCA is higher in “PBM E-score” value: -0.115 for the first, 0.0815 for the second.

Compared with AAAGGTCA, CTCATCCA is higher in “PBM E-score” value: -0.0751 for the first, -0.0382 for the second.

Compared with TTGGGAAA, ATCTTACA is lower in “PBM E-score” value: 0.11 for the first, 0.0817 for the second.

Going from CCCGGTAG to AGAAAAGC, the “PBM E-score” value rises from -0.108 to 0.0534.

First: GGCGCACA
Second: GACGAGAA
The “PBM E-score” value of the first is lower: -0.071 for the first, 0.0802 for the second.

First: TAATATCA
Second: CGTAAAGC
The “PBM E-score” value of the first is higher: 0.26 for the first, -0.147 for the second.

First: AGGACACT
Second: ACCGAGCC
The “PBM E-score” value of the first is lower: -0.196 for the first, -0.165 for the second.

Going from TACTAGGA to CCAATCGG, the “PBM E-score” value rises from -0.0768 to -0.0547.

First: AAATCTTA
Second: CTTTCGTC
The “PBM E-score” value of the first is higher: 0.0634 for the first, 0.0543 for the second.

Going from CTGACATA to ACTATTCG, the “PBM E-score” value rises from 0.153 to 0.224.

Going from CGGCACTA to CCAAGAAG, the “PBM E-score” value falls from 0.0141 to -0.153.

First: CCGCATAA
Second: GCCGACGA
The “PBM E-score” value of the first is higher: 0.283 for the first, -0.0276 for the second.

Compared with ACGTAGAC, CGATTCGC is higher in “PBM E-score” value: -0.247 for the first, 0.0834 for the second.

First: GATTGCAA
Second: ACAGTAGC
The “PBM E-score” value of the first is higher: 0.079 for the first, -0.0133 for the second.

First: AGATGCGC
Second: CTGAGAGC
The “PBM E-score” value of the first is higher: 0.0757 for the first, -0.242 for the second.

First: AGAGGTCC
Second: CGAACTAC
The “PBM E-score” value of the first is lower: -0.0165 for the first, 0.129 for the second.

First: ACTATAAC
Second: AGTGTGGC
The “PBM E-score” value of the first is higher: 0.0218 for the first, 0.0189 for the second.

Compared with ATGTGGCC, CATTCCAG is lower in “PBM E-score” value: 0.0176 for the first, -0.21 for the second.

Compared with GGAACCCA, CCTTCGCG is higher in “PBM E-score” value: -0.0933 for the first, 0.0389 for the second.

Going from CATTATGG to CGCATGGA, the “PBM E-score” value falls from -0.0638 to -0.0776.

First: ATCTTGTC
Second: CATTGTTA
The “PBM E-score” value of the first is higher: 0.109 for the first, 0.0595 for the second.

Compared with CTCTCTGA, CTAACCGA is lower in “PBM E-score” value: -0.0567 for the first, -0.0873 for the second.

Compared with AGGATTGA, CTGGGCGC is lower in “PBM E-score” value: 0.128 for the first, -0.0839 for the second.

Compared with ACCCAATC, AGAACCAA is lower in “PBM E-score” value: 0.137 for the first, -0.0863 for the second.

Going from GACTGGCA to AGCAATCG, the “PBM E-score” value rises from -0.134 to 0.186.

Going from CAATTGGG to GAGTGATA, the “PBM E-score” value rises from 0.0205 to 0.148.

First: AACGCCAA
Second: CCCGCTCA
The “PBM E-score” value of the first is higher: -0.0074 for the first, -0.0399 for the second.

First: ATGGCCGG
Second: AGAAGGAG
The “PBM E-score” value of the first is higher: -0.124 for the first, -0.187 for the second.

Compared with GATATATA, CGCTATGC is lower in “PBM E-score” value: 0.266 for the first, -0.135 for the second.

First: TGCTCTAA
Second: AGGCGCAG
The “PBM E-score” value of the first is higher: -0.153 for the first, -0.252 for the second.

Compared with CGGCAACC, AGGGAAAT is higher in “PBM E-score” value: -0.252 for the first, -0.00854 for the second.

First: ACTACTTC
Second: CAGTCTAC
The “PBM E-score” value of the first is higher: 0.0739 for the first, -0.197 for the second.
